Reference: PubChem BioAssay AID1347076 (National Center for Advancing Translational Sciences (NCATS), 2019)
In all, about 400,000 compounds went through this assay and about 13,000 (3.2%) were called active. The inconclusive results got no clear call from the source; some entries with a clear call stand among them for comparison. Calls follow the shape of the dose curve; as a rule, active = well fitted cell-killing curve with a large enough effect; inconclusive = small, poorly fitted or top-dose-only effect, or effect the other way; inactive = flat fitted curve, though single readings scatter. Potencies of inconclusive entries are doubtful fits and often do not repeat.

test: qHTS assay for MDR1-selective chemotherapeutics: Primary screen using the drug-selected MDR subline cells KB-V1; details: KB-V1 MDR cells viability, CellTiter-Glo, 72 h; activity change, negative = cytotoxicity: at 46.1 µM (top of the series); also: nearly all actives have a fitted effect of over 60% in size
Summary of the method: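 Readout: CellTiter-Glo luminescence, 10 min after addition. Cells: KB-V1 MDR subline, 72 h at 37 degrees C with compound. Analysis: corrected, normalized data fitted to concentration-effect curves.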
% is scaled to controls: 0 for no effect and ±100 for the full control effect; potency is read from the fitted curve at half-maximal effect.

Structure (SMILES)	Potency	activity change, negative = cytotoxicity
COc1ccccc1N1CCN(C(=O)c2cc3c(=O)n4ccccc4nc3s2)CC1	inconclusive: 29.1 µM [cytotoxic, single point]	–
O=S(=O)(Nc1cccc(Cl)c1)c1ccc2[nH]c3c(c2c1)CCCCCC3	inactive	–
Cc1ccc(S(=O)(=O)N2CCCC(C(=O)Nc3cccnc3)C2)cc1 (stereo unspecified)	inconclusive: 17.8 µM [cytotoxic, partial curve, poor fit]	–
Cc1ccc(CNC(=O)C2c3ccccc3C(=O)N(C)C2c2c[nH]c3ccccc23)o1 (stereo unspecified)	inconclusive: 18.4 µM [cytotoxic, partial curve, poor fit]	–
Brc1cccc[n+]1Cc1ccccc1C[n+]1ccccc1Br	inactive	–
COc1ccc(N2CCN(c3ccc(Cl)nn3)CC2)cc1	inconclusive: 20.6 µM [cytotoxic, single point]	–
CCCCCCN1C=CC=C/C1=C\C=C(C#N)C#N	inconclusive: 20.6 µM [cytotoxic, single point]	–
CCC(CC)NC(=O)CN1CCN(S(=O)(=O)c2ccc(Br)s2)CC1	inconclusive: 20.6 µM [cytotoxic, single point]	–
COc1ccc(NC(=O)C2CCCN(S(=O)(=O)c3c(C)n[nH]c3C)C2)cc1 (stereo unspecified)	inconclusive: 13 µM [rising, partial curve, poor fit]	–
Cc1nnc(SCC(=O)N(C)Cc2ccccc2)[nH]c1=O	inactive	–
Clc1ccc(OCCN2CCOCC2)cc1Cl	inactive	–
COc1ccc(C)cc1NC(=O)C(=O)NCCc1sc(-c2ccc(Cl)cc2)nc1C	inactive	–
O=C(CCn1c(=O)[nH]c2ccsc2c1=O)N(CCc1ccccc1)Cc1ccccc1	active: 20.6 µM	–
CCc1cc2c(N3CCN(c4ccccc4)CC3)ncnc2s1	inconclusive: 18.4 µM [cytotoxic, single point]	–
O=C(/C=N/O)NCc1cccnc1	inactive	–
Fc1ccc(Nc2nc(N3CCOCC3)c3ccccc3n2)cc1	active: 16.4 µM	–
CCNCCOC(c1ccccc1)c1ccccc1	inconclusive: 16.4 µM [cytotoxic, single point]	–
CCOC(=O)C1(C)CCCN1C(=O)c1cccc2ccccc12 (stereo unspecified)	inactive	–
COC(=O)CC1C(=O)NCCN1C(=S)NC(=O)C(c1ccccc1)c1ccccc1 (stereo unspecified)	inconclusive: 29.1 µM [rising, single point]	–
O=C(Nc1ccccc1)c1cc(C2COCCN2C(=O)C2CC2)on1 (stereo unspecified)	inactive	–
CC(C)c1ccc(NC(=O)c2snc3ccc(Cl)cc23)cc1	inconclusive: 20.6 µM [cytotoxic, single point]	–
COc1ccc2c(c1)c1c(n2C(C)=O)C(OC(C)=O)=NCC1	inconclusive: 29.1 µM [cytotoxic, single point]	–
CN(Cc1ccccc1)S(=O)(=O)c1ccc(NC(=S)NC(=O)C2CCCC2)cc1	active: 4.11 µM	–
Cc1ccccc1C(=O)Nc1ccc(S(=O)(=O)N2CCCC2)cc1	inconclusive: 16.4 µM [cytotoxic, single point]	–

Reprinted at random: four records from the list.
Structure (SMILES)	Potency	activity change, negative = cytotoxicity
COc1ccc(N2CCN(c3ccc(Cl)nn3)CC2)cc1	inconclusive: 20.6 µM [cytotoxic, single point]	–
O=S(=O)(Nc1cccc(Cl)c1)c1ccc2[nH]c3c(c2c1)CCCCCC3	inactive	–
CCc1cc2c(N3CCN(c4ccccc4)CC3)ncnc2s1	inconclusive: 18.4 µM [cytotoxic, single point]	–
CCOC(=O)C1(C)CCCN1C(=O)c1cccc2ccccc12 (stereo unspecified)	inactive	–

Later entries:

Structure (SMILES)	Potency	activity change, negative = cytotoxicity
COc1ccccc1N1CCN(CC(=O)NCc2ccc(Cl)cc2)CC1	inactive	–
CC(=O)c1ccc(NC(=O)C[n+]2ccc(N(C)C)cc2)cc1	inconclusive: 9.2 µM [rising, single point]	–
CN(C)c1ccc(/C=N\NC(=S)SCN2C(=O)C3CCC(C)(C2=O)C3(C)C)cc1 (stereo unspecified)	inactive	–
CC(C)OC(=O)c1cccc(-c2ccc(C=O)o2)c1	inconclusive: 32.6 µM [rising, single point]	–
CCCCCCOc1ccc(C(=O)NCCCn2ccnc2)cc1	inconclusive: 14.6 µM [cytotoxic, single point]	–
C(/C=C/c1ccccn1)=C\c1ccccc1	inconclusive: 25.9 µM [rising, single point]	–
CCNC(=O)CN(CCc1ccccc1)S(=O)(=O)c1ccc(OC)cc1	active: 20.6 µM	–
O=C1CCCC2=C1C(c1cccs1)n1nc(SCc3ccccc3)nc1N2 (stereo unspecified)	inconclusive: 14.6 µM [cytotoxic, partial curve, poor fit]	–
O=C(COc1ccc(Cl)cc1)OCc1cc(=O)n2nc(-c3cccs3)sc2n1	inactive	–
CCN(CC)C(=O)Cn1cc(C(=O)C(=O)N2CCN(Cc3ccc4c(c3)OCO4)CC2)c2ccccc21	inconclusive: 20.6 µM [cytotoxic, single point]	–
CCOC(=O)c1c(N)sc2c(O)c(Br)ccc12	inconclusive: 25.9 µM [cytotoxic, single point]	–
O=c1[nH][nH]c(=O)c2nc(Nc3ccccc3)ncc12	inactive	–
COCCN(C/C=C/c1ccccc1)C/C=C/c1ccccc1	inconclusive: 29.1 µM [cytotoxic, single point]	–
Cc1cccc(OCc2ccc(C(=O)Nc3ccc(F)cc3)cc2)c1	inconclusive: 10.3 µM [cytotoxic, partial curve]	–
Cc1cc(C)n(C(=O)/C(C#N)=N/Nc2cc(Cl)cc(Cl)c2)n1	inconclusive: 29.1 µM [cytotoxic, single point]	–
O=C(c1cccc(S(=O)(=O)Nc2ccccc2F)c1)N1CCN(c2ccccc2F)CC1	inconclusive: 18.4 µM [cytotoxic, single point]	–
CCCc1cc(=O)n2nc(N3CCC(C(=O)N4CCN(c5ccc(OC)cc5)CC4)CC3)sc2n1	inactive	–
COc1ccc(-c2cc(NC=O)c3ncc(-c4cc(OC)c(OC)c(OC)c4)n3c2)cc1	active: 0.0461 µM	–
COc1c(C)cc(S(=O)(=O)N2CCCC2)c(C)c1C	active: 23.1 µM	–
O=C(CN1CCN(C(=O)CCC(=O)N2CCC(c3ccccc3)=N2)CC1)Nc1cccc(F)c1	inconclusive: 29.1 µM [rising, single point]	–
CCNC(=S)N/N=C/c1cc(C)n(-c2ccc(Cl)cc2)c1C	active: 11.6 µM	–
CC(=O)N=C1C=CC(=CN(O)C(C)(C)Cc2ccccc2)C=C1	–	inconclusive: -39.1% [cytotoxic]
Cc1nn(CCCC(=O)Nc2cc(Oc3ccccc3)cc([N+](=O)[O-])c2)c(C)c1[N+](=O)[O-]	active: 8.2 µM	–
CCCCn1c(N)c(N(Cc2ccccc2OC)C(=O)C(C)Oc2ccc(Cl)cc2)c(=O)[nH]c1=O (stereo unspecified)	inactive	–

Structure (SMILES)	Potency	activity change, negative = cytotoxicity
CCN(CC)S(=O)(=O)c1ccc(NC(=O)c2ccc(OCC3CCCO3)cc2)cc1 (stereo unspecified)	active: 14.6 µM	–
O=C(Nc1ccc2c(c1)OCCO2)c1cc(-c2ccccn2)nc2ccc(Br)cc12	inactive	–
COc1ccc(C(c2nnnn2-c2c(C)cccc2C)N2CCN(C/C=C/c3ccccc3)CC2)cc1 (stereo unspecified)	inconclusive: 29.1 µM [cytotoxic, single point]	–
CCC(C)n1c(=N)c(C(=O)NCc2ccccc2)cc2c(=O)n3cc(C)ccc3nc21 (stereo unspecified)	inconclusive: 18.4 µM [rising, partial curve]	–
C/C(N)=C(/C#N)C(=O)CSc1nnc(SCc2ccc(Cl)cc2)s1	inconclusive: 20.6 µM [cytotoxic, single point]	–
c1ccc(-c2nccc(-c3ccc(-n4cnc5ccccc54)cc3)n2)nc1	inconclusive: 4.61 µM [cytotoxic, full curve, poor fit]	–
COc1ccc(S(=O)(=O)N2CCC(C(=O)N3CCCCC3)CC2)cc1OC	inconclusive: 20.6 µM [cytotoxic, single point]	–
COc1cc(C2C=C(Nc3ccccc3)C(=O)N2c2ccccc2)ccc1O (stereo unspecified)	inconclusive: 16.4 µM [cytotoxic, single point]	–
CCOc1ccccc1NC(=O)NC1CCCc2ccccc21 (stereo unspecified)	inconclusive: 18.4 µM [cytotoxic, partial curve, poor fit]	–
Clc1cccc(-c2nnc(-c3ccccc3)o2)c1	inconclusive: 20.6 µM [cytotoxic, partial curve]	–
O=C(NC(=S)NCCCN1CCOCC1)c1cccc2ccccc12	inconclusive: 8.2 µM [cytotoxic, partial curve]	–
CCN(CC)c1cc(C)c2cc(NC(=O)c3cccc(F)c3)ccc2n1	inconclusive: 18.4 µM [cytotoxic, single point]	–
COc1ccccc1NC(=O)CSc1nc2ccccc2nc1N1CC(C)OC(C)C1 (stereo unspecified)	inactive	–
Cc1ccnc2nc(C(=O)OCC(=O)NC3CCC(C)CC3)nn12 (stereo unspecified)	inactive	–
Cc1ccc2[nH]c(=O)c(CN(Cc3ccco3)C(=O)c3ccncc3)cc2c1	inconclusive: 23.1 µM [cytotoxic, single point]	–
COc1cccc(C2c3c(oc4ccc(Cl)cc4c3=O)C(=O)N2c2cc(C)on2)c1OC (stereo unspecified)	inactive	–
Cn1c(=O)c(=O)n(C)c2cc(S(=O)(=O)N3CCCCCC3)ccc21	inconclusive: 23.1 µM [cytotoxic, partial curve]	–
COc1ccc(-c2cc(C(=O)N3CCN(C(=O)c4ccccc4F)CC3)[nH]n2)cc1	inactive	–
C=C(C)CNC(=S)N=Nc1c(O)[nH]c2ccc([N+](=O)[O-])cc12	inconclusive: 11.6 µM [cytotoxic, partial curve, poor fit]	–
Cc1c(C=NNc2ccccc2)[nH]c(=O)[nH]c1=O	inconclusive: 20.6 µM [cytotoxic, single point]	–
CC(C)NC(=O)Nc1ccc2c(c1)C(=O)N([C@H](C)CO)C[C@H](C)[C@@H](CN(C)S(C)(=O)=O)O2	inconclusive: 32.6 µM [rising, single point]	–
NC(=O)CCCn1c(C(=O)c2ccc(Cl)cc2)c2ccc([N+](=O)[O-])cc2[n+]1[O-]	inconclusive: 29.1 µM [cytotoxic, single point]	–
CCN(CC(=O)Nc1ccccc1C(F)(F)F)C(=O)CCOc1ccc(C)cc1	inconclusive: 29.1 µM [cytotoxic, single point]	–
